Where “and” joins values, the source holds several entries; their conditions need not be identical. Identical values can stand only once. At least one read-out could not be matched to a standard name with certainty.
Test system: Sphaerotheca cucurbitae
Assay: Test on preventive effect against cucumber powdery mildew
Type: in vivo
Set-up: scale not given here
Settings: applied alone
Protocol: Cucumber (cultivar: Suyo) was cultivated in a plastic pot having a diameter of 7.5 cm, and when it reached 1.5-leaf stage, 10 ml of a chemical solution having the compound of the present invention adjusted to a prescribed concentration, was applied by a spray gun. After the chemical solution dried, a suspension of conidia of Sphaerotheca cucurbitae was sprayed and inoculated and maintained in a constant temperature chamber at 20° C. From 9 to 10 days after the inoculation, the area of sporulation was investigated, and the disease rate was determined in the same manner as in Test Example 1, and the results are shown in Tables 5 to 20. The average lesion area in the non-treated plot was determined in the same manner as for the treated plot except that water was applied by a spray gun instead of the chemical solution.
Further, theoretical values by the Colby's formula are shown in brackets in Tables 5 to 20.

In the case of `CC1CCN(C2C(c3c(F)cc(F)cc3F)=C(Cl)N=C3N=CNN32)CC1` (centres unmarked) [the compound of the formula (II)], the Disease rate (1.6 ppm) is reported as 58.7 and 60.2.
In the case of `COc1cc(C)c(C(=O)c2c(Cl)cnc(Cl)c2C(F)(F)F)c(OC)c1OC` [Compound No. 39, 4-(2,3,4-trimethoxy-6-methylbenzoyl)-2,5-dichloro-3-trifluoromethylpyridine], the Disease rate (6.3 ppm) is reported as 87.6 and 51.6 and 45 and the Disease rate (12.5 ppm) is reported as 58.4 and 43.
With `COc1cc(C)c(C(=O)c2c(OC)ncc(Cl)c2C)c(OC)c1OC` [Compound No. 35, 3-(2,3,4-trimethoxy-6-methylbenzoyl)-5-chloro-2-methoxy-4-methylpyridine] the Disease rate (0.4 ppm) was 60 and 98.3 and the Disease rate (0.8 ppm) was 92.4 and 98.0 and 98.3.
